Results taken from article PMC2860243.
These are yes or no findings as the source states them, for the method shown. In cells and extracts the contact can be indirect. These calls come from enrichment with a bait or labelling near it, and not all partners need be listed. For some of these results: Sequences can lack the tags named with a protein. Values belong to the binder of their own block, whether it stands above or below them.

Chains of the proteins cited; added tags and fusions are not shown.
UniProt Q8BX22: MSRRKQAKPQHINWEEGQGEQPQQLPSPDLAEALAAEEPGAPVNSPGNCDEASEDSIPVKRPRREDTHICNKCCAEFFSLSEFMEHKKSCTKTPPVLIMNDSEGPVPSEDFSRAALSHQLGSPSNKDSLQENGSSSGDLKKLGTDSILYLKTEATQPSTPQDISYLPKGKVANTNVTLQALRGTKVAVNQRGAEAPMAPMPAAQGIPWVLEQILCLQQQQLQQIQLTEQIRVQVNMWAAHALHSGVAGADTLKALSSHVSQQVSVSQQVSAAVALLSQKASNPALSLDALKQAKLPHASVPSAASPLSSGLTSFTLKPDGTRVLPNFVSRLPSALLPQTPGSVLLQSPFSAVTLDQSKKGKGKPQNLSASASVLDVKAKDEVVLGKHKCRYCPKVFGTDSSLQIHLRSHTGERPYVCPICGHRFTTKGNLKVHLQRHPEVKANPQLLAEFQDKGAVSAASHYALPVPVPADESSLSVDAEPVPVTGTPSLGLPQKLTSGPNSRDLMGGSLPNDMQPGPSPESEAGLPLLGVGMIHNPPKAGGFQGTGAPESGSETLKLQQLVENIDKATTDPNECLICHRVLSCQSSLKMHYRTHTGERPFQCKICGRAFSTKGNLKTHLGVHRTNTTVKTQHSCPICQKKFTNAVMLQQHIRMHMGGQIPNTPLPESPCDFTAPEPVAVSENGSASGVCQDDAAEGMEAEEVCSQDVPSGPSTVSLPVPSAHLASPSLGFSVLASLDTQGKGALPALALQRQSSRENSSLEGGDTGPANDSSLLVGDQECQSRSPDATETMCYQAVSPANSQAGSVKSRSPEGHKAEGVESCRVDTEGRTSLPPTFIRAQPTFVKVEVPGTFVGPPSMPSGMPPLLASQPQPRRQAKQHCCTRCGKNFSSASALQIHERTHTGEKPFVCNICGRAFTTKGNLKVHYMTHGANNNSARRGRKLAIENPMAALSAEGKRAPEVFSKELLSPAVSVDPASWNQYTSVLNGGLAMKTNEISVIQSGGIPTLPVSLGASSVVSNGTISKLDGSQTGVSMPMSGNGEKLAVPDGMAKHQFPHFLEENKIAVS
UniProt P20263: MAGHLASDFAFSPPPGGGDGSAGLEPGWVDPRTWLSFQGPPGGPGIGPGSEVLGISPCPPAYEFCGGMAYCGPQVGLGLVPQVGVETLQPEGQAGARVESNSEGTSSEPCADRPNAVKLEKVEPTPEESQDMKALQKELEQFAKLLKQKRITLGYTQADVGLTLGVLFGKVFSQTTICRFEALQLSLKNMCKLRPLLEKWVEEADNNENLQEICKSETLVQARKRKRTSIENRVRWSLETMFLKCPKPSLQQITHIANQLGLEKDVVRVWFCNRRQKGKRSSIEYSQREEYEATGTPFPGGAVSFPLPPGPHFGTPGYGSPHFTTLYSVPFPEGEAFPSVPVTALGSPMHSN

Experiments:
[1] = target: FLAG-tagged Sall4 (F-Sall4) (mouse) (UniProt Q8BX22); test: affinity purification with mass spectrometry; FLAG-affinity purification of F-Sall4, F-Dax1, F-Tcfcp2l1 or F-Esrrb from nuclear extract of ZHBTc4-derived ESC clones, buffer C-100, Benzonase, FLAG peptide elution; two purifications each without and with doxycycline (16 hr, Oct4 removed); hits present in both -Dox purifications
[2] = target: FLAG-Oct4 (F-Oct4) (mouse) (UniProt P20263); test: affinity purification with mass spectrometry; FLAG-affinity purification of F-Oct4 from 1.5 ml ESC nuclear extract on anti-FLAG M2 agarose, buffer C-100 (20 mM HEPES pH 7.6, 100 mM KCl), washes with 0.02% NP-40, Benzonase, 4°C, FLAG peptide elution; three purifications; control ZHBTc4 extract
[3] = target: Oct4 (Pou5f1) (mouse (endogenous in 46C ESCs)) (UniProt P20263); test: affinity purification with mass spectrometry; immunoprecipitation of endogenous Oct4 (antibody sc-8628 cross-linked to protein G Sepharose) from 1 ml 46C ESC nuclear extract, Benzonase, washes with C-100*, 4°C, boiled in SDS-loading dye; control goat IgG
[4] = target: T1, FLAG-tagged Esrrb (F-Esrrb) (mouse) (UniProt Q61539); test: affinity purification with mass spectrometry; FLAG-affinity purification of F-Sall4, F-Dax1, F-Tcfcp2l1 or F-Esrrb from nuclear extract of ZHBTc4-derived ESC clones, buffer C-100, Benzonase, FLAG peptide elution; two purifications each without and with doxycycline (16 hr, Oct4 removed); hits present in both -Dox purifications
T1 sequence: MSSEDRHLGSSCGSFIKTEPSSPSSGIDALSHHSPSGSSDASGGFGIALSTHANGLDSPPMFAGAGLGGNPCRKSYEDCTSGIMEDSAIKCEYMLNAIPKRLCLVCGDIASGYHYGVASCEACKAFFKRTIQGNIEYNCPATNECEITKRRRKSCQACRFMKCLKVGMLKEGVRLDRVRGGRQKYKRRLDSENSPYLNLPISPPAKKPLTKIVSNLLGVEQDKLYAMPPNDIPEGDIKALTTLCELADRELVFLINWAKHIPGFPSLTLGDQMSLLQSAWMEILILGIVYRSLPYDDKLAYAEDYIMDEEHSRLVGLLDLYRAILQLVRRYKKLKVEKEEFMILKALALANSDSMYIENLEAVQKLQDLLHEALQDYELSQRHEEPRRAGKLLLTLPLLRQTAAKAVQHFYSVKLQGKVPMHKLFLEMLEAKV

[5] = target: T2, FLAG-tagged Tcfcp2l1 (F-Tcfcp2l1) (mouse) (UniProt Q3UNW5); test: as above
T2 sequence: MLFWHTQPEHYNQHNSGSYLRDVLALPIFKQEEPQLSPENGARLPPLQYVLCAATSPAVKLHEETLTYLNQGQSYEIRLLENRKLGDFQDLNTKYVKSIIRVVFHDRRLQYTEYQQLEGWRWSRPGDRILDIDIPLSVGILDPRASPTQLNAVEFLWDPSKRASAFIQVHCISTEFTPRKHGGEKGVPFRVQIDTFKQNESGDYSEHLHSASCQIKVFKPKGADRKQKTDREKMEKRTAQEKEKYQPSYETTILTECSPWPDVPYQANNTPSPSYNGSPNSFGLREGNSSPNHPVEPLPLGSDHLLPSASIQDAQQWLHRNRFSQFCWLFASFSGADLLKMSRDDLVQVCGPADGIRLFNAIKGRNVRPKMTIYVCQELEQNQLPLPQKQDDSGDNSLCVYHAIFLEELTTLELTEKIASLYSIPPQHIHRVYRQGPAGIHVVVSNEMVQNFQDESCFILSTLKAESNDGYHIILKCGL

B1: Sall1 (protein, UniProt Q9ER74 1-1322)
chain: MSRRKQAKPQHFQSDPEVASLPRRDGDTEKGQPSRPTKSKDAHVCGRCCAEFFELSDLLLHKKSCTKNQLVLIVNESPASPAKTFPPGPSLNDPDDQMKDAANKADQEDCSDLSEPKGLDREESMEVEVPVATTTTTTTGGSGGSGGSTLSGVTNITTPSCHSGCSSGTSAITTSLPQLGDLTTLGNFSVINSNVIIENLQSTKVAVAQFSQEARCGGASGGKLLISTLMEQLLALQQQQIHQLQLIEQIRHQILLLASQSADLPAAPSIPSQGTLRTSANPLTTLSSHLSQQLAVAAGLAQSLASQSANISGVKQLPHVQLPQSSSGTSIVPPSGGTSPNMSIVTAAVPTPSSEKVASNAGASHVSSPAVSASSSPAFAISSLLSPESNPLLPQPTPANAVFPTPLPNIATTAEDLNSLSALAQQRKSKPPNVTAFEAKSTSDEAFFKHKCRFCAKVFGSDSALQIHLRSHTGERPFKCNICGNRFSTKGNLKVHFQRHKEKYPHIQMNPYPVPEHLDNVPTSTGIPYGMSIPSEKPVTSWLDTKPVLPTLTTSVGLPLPPTLPSLTPFIKTEEPAPIPISHSAASPQGSVKSDSGAPDLATRNPSGVPEEVEGSAVPPFGGKGEESNMASSAVPTAGNSTLNSPVADGGPGGTTFTNPLLPLMSEQFKAKFPFGGLLDSAQASETSKLQQLVENIDKKATDPNECIICHRVLSCQSALKMHYRTHTGERPFKCKICGRAFTTKGNLKTHYSVHRAMPPLRVQHSCPICQKKFTNAVVLQQHIRMHMGGQIPNTPVPDNYPESMESDTGSFDEKNFDDLDNFSDENMEECPEGSIPDTPKSADASQDSLSSSPLPLEMSSIAALENQMKMINAGLAEQLQASLKSVENGSMEGDVLTNDSSSVGGDMESQSAGSPAISESTSSMQALSPSNSTQEFHKSPGMEEKPQRVGPGEFANGLSPTPVNGGALDLTSSHAEKIIKEDSLGILFPFRDRGKFKNTACDICGKTFACQSALDIHYRSHTKERPFICTVCNRGFSTKGNLKQHMLTHQMRDLPSQLFEPSSNLGPNQNSAVIPANSLSSLIKTEVNGFVHVSPQDSKDAPTSHVPQGPLSSSATSPVLLPALPRRTPKQHYCNTCGKTFSSSSALQIHERTHTGEKPFACTICGRAFTTKGNLKVHMGTHMWNSTPARRGRRLSVDGPMTFLGGNPVKFPEMFQKDLAARSGSGDPSSFWNQYTAALSNGLAMKANEISVIQNGGIPPIPGSLGSGSSPISGLTGNVEKLGNSEPSAPLAGLEKMASSENGTNFRFTRFVEDSKEIVTS
binding [1]: binds
binding [2]: binds
binding [3]: binds

B5: Tcfcp2l1 (protein, UniProt Q3UNW5 1-479)
chain: T2 sequence
binding [4]: binds
binding [2]: binds
binding [3]: binds

B6: Zfp143 (protein, UniProt O70230 1-638)
chain: MLLAQINRDSQGMTEFPGGGMEAQHVTLCLTEAVTVADGDNLENMEGVSLQAVTLADGSTAYIQHNSKDGRLIDGQVIQLEDGSAAYVQHVPIPKSTGDSLRLEDGQAVQLEDGTTAFIHHTSKDSYDQSSLQAVQLEDGTTAYIHHAVQVPQSDTILAIQADGTVAGLHTGDATIDPDTISALEQYAAKVSIDGSDGVTSTGMIGENEQEKKMQIVLQGHATRVTPKSQQSGEKAFRCKYDGCGKLYTTAHHLKVHERSHTGDRPYQCEHSGCGKAFATGYGLKSHFRTHTGEKPYRCSEDNCTKSFKTSGDLQKHIRTHTGERPFKCPIEGCGRSFTTSNIRKVHIRTHTGERPYYCTEPGCGRAFASATNYKNHVRIHTGEKPYVCTVPGCDKRFTEYSSLYKHHVVHTHSKPYNCNHCGKTYKQISTLAMHKRTAHNDTEPIEEEQEAFFEPPPGQGDDVLKGSQITYVTGVDGEDIVSTQVATVTQSGLSQQVTLISQDGTQHVNISQADMQAIGNTITMVTQDGTPITVPTHDAVISSAGTHSVAMVTAEGTEGQQVAIVAQDLAAFHTASSEMGHQQHSHHLVTTETRPLTLVATSNGTQIAVQLGEQPSLEEAIRIASRIQQGETPGLDD
binding [1]: binds
binding [5]: binds
binding [2]: binds
binding [3]: binds

Further lines, results first:

binding [1]: binds
B2: Bend3 (protein, UniProt Q6PAL0 1-825)
chain: MNSTEISEDVEEVLKNNPVKAEGSDATLDCSRNSRASEKHLLESVLTALHDSSKRKQLDSDGQPDSVPSVKRRRLIPEALLAGMRTRENSSPCQGNGEPASRGRSGSCAWPAEEEPSTEATVPSYKKPLYGISHKIMEKKNPPSGDLLSPYELFEKANSSSGPSPLRLLSESQKRECGVGVATDGDLNIYFLIQKMFYMLNGLTTNMSQLHSKMDLLSLEVSRVKKQVSPSELVAKFQPPPEYQLTASELKQIAEQSLSCGDLACRLLLQLFPELFSDVDFSRGCSACGFAAKRKLESLHLQLIRNYVEVYYPNVKDTAVWQAECLPQLNDFFSRFWAQREMEDSQPGGQVTNFFEADQVDAGHFLDNKDQEEALSLDRSSTIASDHVVDTQDLTEFLDEASSPGEFAVFLLHRLFPELFDHRKLGEQYSCYGDGGKQELDPQRLQIIRNYTEIYFPDMQEEEAWLQQCAQRINDELEGLGLEGGSEGEAPRDDCYDSSSLPDDISVVKVEDNFEGERPGRRSKKIWLVPIDFDKLEIPQPDFEMPGSDCLLSKEQLRSIYESSLSIGNFASRLLVHLFPELFTHENLRKQYNCSGSLGKKQLDPARIRLIRHYVQLLYPRAKNDRVWTLEFVGKLDERCRRRDTEQRRSYQQQRKVHVPGPECRDLASYAINPERFREEFEGPPLPPERSSKDFCKIPLDELVVPSPDFPVPSPYLLSDKEVREIVQQSLSVGNFAARLLVRLFPELFTTENLRLQYNHSGACNKKQLDPTRLRLIRHYVEAVYPVEKMEEVWHYECIPSIDERCRRPNRKKCDILKKAKKVEK

binding [1]: binds
B3: Cxxc5 (protein, UniProt Q91WA4 1-317)
chain: MSSLGGGSQDAGGSSSSSNTNSSSGSGQKAGGTDKSTAVAATTAPTSVADDAPPPERRNKSGIISEPLNKSLRRSRPLSHYSSFGSSGGGGSMMGVESADKAAAAAASLLANGHDLAAAMAVDKSNPTSKHKSGAVASLLSKAERATELAAEGQLTLQQFAQSTEMLKRVVQEHLPLMSEAGAGLPDMEAVAGAEALNGQSDFPYLGAFPINPGLFIMTPAGVFLAESALHMAGLAEYPMQGELASAISSGKKKRKRCGMCAPCRRRINCEQCSSCRNRKTGHQICKFRKCEELKKKPSAALEKVMLPSGAAFRWFQ

binding [4]: binds
B4: Esrra (protein, UniProt O08580 1-422)
chain: MSSQVVGIEPLYIKAEPASPDSPKGSSETETEPPVTLASGPAPARCLPGHKEEEDGEGAGSGEQGSGKLVLSSLPKRLCLVCGDVASGYHYGVASCEACKAFFKRTIQGSIEYSCPASNECEITKRRRKACQACRFTKCLRVGMLKEGVRLDRVRGGRQKYKRRPEVDPLPFPGPFPAGPLAVAGGPRKTAPVNALVSHLLVVEPEKLYAMPDPASPDGHLPAVATLCDLFDREIVVTISWAKSIPGFSSLSLSDQMSVLQSVWMEVLVLGVAQRSLPLQDELAFAEDLVLDEEGARAAGLGDLGAALLQLVRRLQALRLEREEYVLLKALALANSDSVHIEDAEAVEQLREALHEALLEYEAGRAGPGGGAERRRAGRLLLTLPLLRQTAGKVLAHFYGVKLEGKVPMHKLFLEMLEAMMD
